In US20110171144A1, “Functional Micelles for Hard Tissue Targeted Delivery of Chemicals” (priority 2008, published 2011):
At least one compound was matched to its structure with a doubt left.

Tested on: Mice (retired breeders)
Assay: In vivo bone anabolic effect of bone-targeting micelles in mice (BMD of tibias, P-Dexa)
Conditions: after 28 days, micelles i.v. 40 mg simvastatin/Kg every 4 days, oral 10 mg/Kg daily

CCC(C)(C)C(=O)O[C@H]1C[C@@H](C)C=C2C=C[C@H](C)[C@H](CC[C@@H]3C[C@@H](O)CC(=O)O3)[C@H]21 [simvastatin solution, simvastatin]
BMD compared to control: not able to significantly increase BMD
